{"source": "patent US11998609B2", "about": "“Self-assembling antiviral prodrugs” (priority 2021, dated 2024)", "format_in_all_cases": "physicochemical", "key": {"[1]": {"assay": "Nile Red encapsulation assay, critical micellization concentration of TFV-PAs", "settings": "for critical micellization concentration (CMC): Nile red encapsulation, 635 nm/660 nm ratio, aqueous solutions; for critical micellization concentration: figure legends FIG. 3A-3C, Nile red 635 nm versus 660 nm, mean±SD, n=3"}, "[2]": {"assay": "Gelation of TFV-PA solutions on addition of PBS (inversion test, injection into PBS)", "settings": "for gel formation: 5 mM solutions, PBS added (final 1× PBS), visual; for gelation upon injection: 10 mM solutions with Nile red injected into 10× PBS"}, "[3]": {"assay": "TEM of self-assembled TFV-PA nanostructures", "settings": "1 mM concentration"}, "[4]": {"assay": "In vitro prodrug release from TFV-PA hydrogels", "method": "To study gel release, 5 mM and 10 mM solutions of TFV-PA2 and TFV-PA3 were prepared using deionized water and allowed to age at RT for 48 hours. 45 μL of each solution was aliquoted into three 0.5 mL microcentrifuge tubes and 5 μL of 10× PBS was added to each vial to form a hydrogel with a final concentration of 1× PBS. Gels were allowed to set for 5-10 minutes before 60 μL of 1× PBS was added to the surface as the release media. The vials were then allowed to age at 37° C. Every 2 days, 50 μL of gel release supernatant was collected and replaced with an equal volume of fresh 1× PBS. Samples were frozen and stored at −20° C. for future analysis by RP-HPLC. On select days, 5 μL of release supernatant was collected 24 hours after supernatant exchange and used to prepare a negatively stained transmission electron microscope grid for analysis with the Talos transmission electron microscope. The grid was prepared as described above, except the sample was blotted with 5 μL deionized water (wicked immediately) after the sample was wicked away to remove excess salts from the PBS. Once the release experiment was complete, samples were thawed and 1-2 mg of TCEP was added to 25 μL sample solution and an equal volume of acetonitrile, then vortexed and sonicated at 37° C. for 10 minutes to ensure complete cleavage of the TFV moiety from the TFV-PAs. 25 μL of the TCEP treated solution was run in acidic phase through the Varian ProStar analytical HPLC and the 260 nm AUC of the TFV peak was used to calculate the concentration of the aliquot from the TFV calibration curve."}}, "note": "At least one peptide structure holds a part that was inferred or is arguable (an end, a ring closure or a residue). Residues, ends and D or L forms follow the SMILES beside them. *: point of attachment. X1 = C[C@H](Cn1cnc2c(N)ncnc21)OCP(=O)(O)OCCS*; Palmitoyl = CCCCCCCCCCCCCCCC(=O)*"}
{"smiles": "CCCCCCCCCCCCCCCC(=O)N[C@H](C(=O)N[C@H](C(=O)N[C@@H](CSSCCOP(=O)(O)CO[C@H](C)Cn1cnc2c(N)ncnc21)C(=O)N[C@@H](CCC(=O)O)C(=O)O)C(C)C)C(C)C", "note": "[TFV-PA2] (Palmitoyl-VVC(X1)E-OH)", "values": [{"measurement": "critical micellization concentration (CMC)", "setting": "[1]", "value": 51, "unit": "µM"}, {"measurement": "critical micellization concentration", "setting": "[1]", "value": 51, "unit": "μm"}, {"measurement": "gel formation", "setting": "[2]", "value": "weak gel formation"}, {"measurement": "gelation upon injection", "setting": "[2]", "value": "formed gels instantly upon injection"}, {"measurement": "nanobelt width", "setting": "[3]", "value": "11.8±1.3", "unit": "nm"}, {"measurement": "average concentration in the release supernatant", "setting": "[4]; 5 mM gels", "value": "361 ± 91", "unit": "µM"}, {"measurement": "percent release from hydrogel", "setting": "[4]; 5 mM gels, day 14", "value": 56, "unit": "%"}, {"measurement": "prodrug released from hydrogel", "setting": "[4]; 5 mM gels, day 14", "value": "126 ± 7", "unit": "nmol"}, {"measurement": "average concentration in the release supernatant", "setting": "[4]; 10 mM gels", "value": "619 ± 268", "unit": "µM"}, {"measurement": "percent release from hydrogel", "setting": "[4]; 10 mM gels, day 14", "value": 48, "unit": "%"}, {"measurement": "initial prodrugs released from hydrogel", "setting": "[4]; by day 14, 37° C., PBS release medium", "value": "about 50%"}]}
{"smiles": "CCCCCCCCCCCCCCCC(=O)N[C@H](C(=O)N[C@H](C(=O)N[C@H](C(=O)N[C@@H](CSSCCOP(=O)(O)CO[C@H](C)Cn1cnc2c(N)ncnc21)C(=O)N[C@@H](CCC(=O)O)C(=O)O)C(C)C)C(C)C)C(C)C", "note": "[TFV-PA3] (Palmitoyl-VVVC(X1)E-OH)", "values": [{"measurement": "critical micellization concentration (CMC)", "setting": "[1]", "value": 8, "unit": "µM"}, {"measurement": "critical micellization concentration", "setting": "[1]", "value": 8, "unit": "μm"}, {"measurement": "gel formation", "setting": "[2]", "value": "robust gel formation"}, {"measurement": "gelation upon injection", "setting": "[2]", "value": "formed gels instantly upon injection"}, {"measurement": "nanobelt width", "setting": "[3]", "value": "18.9±3.0", "unit": "nm"}, {"measurement": "percent of hydrogel released", "setting": "[4]; 5 mM hydrogels, day 30", "value": "16.3±1.3", "unit": "%"}, {"measurement": "prodrug released from hydrogel", "setting": "[4]; 5 mM hydrogels, day 30", "value": "36.7 ± 3.0", "unit": "nmol"}, {"measurement": "average concentration of release supernatant", "setting": "[4]; 10 mM gels, from day 8 onwards", "value": "13.3 ± 4.2", "unit": "µM"}, {"measurement": "percent of hydrogel released", "setting": "[4]; 10 mM hydrogels, day 30", "value": "6.1±0.5", "unit": "%"}, {"measurement": "prodrug released from hydrogel", "setting": "[4]; 10 mM hydrogels, day 30", "value": "27.3 ± 2.2", "unit": "nmol"}]}
